Where “and” joins values, the source holds several entries; their conditions need not be identical. Equal values may be shown once. The campaign covered roughly 300,000 compounds. About 5,400 (1.8%) were called active. Inconclusive results, whose numbers are uncertain, are shown with a selection of clear calls. Calls follow the shape of the full dose curve; tested in HEK293 cells. Where the call is inconclusive, the potency comes from a doubtful curve fit.
test: qHTS for inhibitors of binding or entry into cells for Marburg Virus; details: Marburg virus pseudotyped entry inhibition, cell reporter; series mostly up to 37.8 µM
Potency is read from the fitted curve at half-maximal effect.

| Structure (SMILES) | Potency |
| --- | --- |
| O=C(CCC(=O)Nc1cccc(Cl)c1)N/N=C/c1cc([N+](=O)[O-])ccc1O | inconclusive: 35.5 µM [inhibitor, single point] |
| Cc1cc(C)cc(Oc2nc3c(C)cccn3c(=O)c2/C=C(\C#N)C(=O)NC2CCS(=O)(=O)C2)c1 (centres undefined) | inconclusive: 35.5 µM [inhibitor, single point] |
| COc1ccc(S(=O)(=O)N(CC(=O)Nc2cccnc2)c2ccccc2OC)cc1 | inconclusive: 29.1 µM [inhibitor, single point] |
| COC(=O)N/N=C/c1cc(Cl)cc(Cl)c1OCc1ccccc1F | inconclusive: 6.31 µM [activator, single point] |
| O=C(CN1CCOCC1)N1N=C(c2cccs2)CC1c1cccs1 (centres undefined) | inconclusive: 3.16 µM [activator, partial curve, poor fit] |
| CCc1cc(C(=O)N2CCN(c3ccccc3OC)CC2)sc1C | inconclusive: 12.6 µM [inhibitor, partial curve, poor fit] |
| CC(C)[C@@H]1NC(=O)c2cc([N+](=O)[O-])cc(I)c2OCC[C@@H](C(N)=O)NC(=O)[C@H](CCC(=O)O)NC1=O | inactive |
| CN1CCN(C(c2cccc(C(F)(F)F)c2)c2nnnn2C(C)(C)C)CC1 (centres undefined) | inactive |
| CCN1C(=O)N(CC)C2NC(=S)NC21 (centres undefined) | inconclusive: 0.562 µM [inhibitor, full curve, poor fit] |
| C=Cc1ccc(C(=O)NC2CCCN(Cc3ccccc3F)C2)cc1 (centres undefined) | inconclusive: 2.24 µM [inhibitor, partial curve, poor fit] |
| Cc1cccc(NC(=O)C(c2ccccc2Cl)N2CCOCC2)c1 (centres undefined) | inactive |
| C[C@H](NC(=O)OC(C)(C)C)C(=O)N/N=C/c1cccc2nccnc12 | inactive |
| COC(=O)c1cc(Br)c(=O)n(Cc2ccncc2)c1 | inconclusive: 1.26 µM [inhibitor, partial curve, poor fit] |
| CCn1cc(C(=O)N(C)Cc2ccccc2)c(=O)c2cc(S(=O)(=O)N3CCCCC3)ccc21 | inactive |
| CC(C)C(c1nnnn1Cc1ccc(F)cc1)N1CCC(C(N)=O)CC1 (centres undefined) | inactive |
| CCOC(=O)Nc1ccc2c(c1)N(C(=O)CCN1CCOCC1)c1ccccc1S2 | inactive |
| O=C(/C(C=Nc1cc2c(oc1=O)CCCC2=O)=C(\O)c1ccccc1)c1ccccc1 | inactive |
| CCC(C)C(NC(=O)C1CCC(C)CC1)C(=O)NC(C(=O)OC)C(C)C (centres undefined) | inconclusive: 35.5 µM [activator, single point] |
| Cc1ccc(C)c(-n2c(SCC(=O)Nc3nonc3C)nnc2-c2ccoc2C)c1 | inconclusive: 10 µM [inhibitor, partial curve, poor fit] |
| CC1(C)C(C=C(Cl)Cl)C1C(=O)N/N=C/c1ccccc1F (centres undefined) | inconclusive: 12.6 µM [inhibitor, single point] |
| Nc1cccc(C(=O)OCC(=O)c2ccccc2)c1 | inconclusive: 1.26 µM [activator, full curve, poor fit] |
| COc1ccccc1OCCC(=O)OCC(=O)c1c(N)n(C)c(=O)n(C)c1=O | inactive |

An excerpt from above in order of count of non-hydrogen atoms, largest number first:

| Structure (SMILES) | Potency |
| --- | --- |
| Cc1cc(C)cc(Oc2nc3c(C)cccn3c(=O)c2/C=C(\C#N)C(=O)NC2CCS(=O)(=O)C2)c1 (centres undefined) | inconclusive: 35.5 µM [inhibitor, single point] |
| CCC(C)C(NC(=O)C1CCC(C)CC1)C(=O)NC(C(=O)OC)C(C)C (centres undefined) | inconclusive: 35.5 µM [activator, single point] |
| C=Cc1ccc(C(=O)NC2CCCN(Cc3ccccc3F)C2)cc1 (centres undefined) | inconclusive: 2.24 µM [inhibitor, partial curve, poor fit] |

Continued:

| Structure (SMILES) | Potency |
| --- | --- |
| CCCNS(=O)(=O)c1ccc(OCC(=O)N2CCN(Cc3ccccc3)CC2)cc1 | inconclusive: 4.11 µM [inhibitor, partial curve] |
| O=C(NCC(=O)N(Cc1ccccc1)C(C(=O)NC1CCCC1)c1cccnc1)c1ccco1 (centres undefined) | inconclusive: 35.5 µM [activator, single point] |
| COc1ccc(OC)c(CCNC(=O)Cn2nc(C)c3c(C)n(-c4ccccc4)nc3c2=O)c1 | inconclusive: 0.501 µM [inhibitor, full curve, poor fit] |
| O=C1CCCc2nc(N3CCN(C(=O)c4ccco4)CC3)ncc21 | inconclusive: 3.16 µM [activator, partial curve, poor fit] |
| COc1cc(N/C=C(\C(C)=O)c2ccccc2)cc(OC)c1 | inactive |
| CCN1CCN(c2ccc(N=Cc3ccc(O)cc3O)cc2)CC1 | inconclusive: 35.5 µM [inhibitor, single point] |
| CCOc1cc(CNCc2ccccn2)ccc1OCC(=O)NC1CCCCC1 | inactive |
| Cc1ccc(C(=O)CC(=O)c2ccc(C)cc2O)cc1 | inconclusive: 6.31 µM [activator, single point] |
| COc1ccc(NC(=O)N2CCc3nc(-c4ccccc4)c4c(c3C2)CO[C@@H](C)C4)cc1 | inactive |
| O=C(Cc1c(Cl)cccc1Cl)Nc1ccc(S(=O)(=O)Nc2ncccn2)cc1 | inactive |
| CC(C)CC(=O)Nc1ccc(-c2nc3ccccc3c(=O)[nH]2)cc1 | inconclusive: 0.0517 µM [activator, full curve, poor fit] |
| O=c1c(-c2ccc(O)cc2)coc2cc(O)cc(O)c12 | inconclusive: 3.66 µM [activator, partial curve, poor fit] and inconclusive: 1.58 µM [activator, single point] |
| Cc1ccc(S(=O)(=O)N2CCC(C(=O)Nc3cc(C(F)(F)F)ccc3N3CCOCC3)CC2)cc1C | inconclusive: 11.2 µM [inhibitor, partial curve, poor fit] |
| CCCCC(=O)NC(c1ccc([N+](=O)[O-])cc1)c1c(O)ccc2ccccc12 (centres undefined) | inconclusive: 20.6 µM [inhibitor, partial curve, poor fit] |
| CN(C(=O)CSc1nc2ccc(NC(=O)c3ccc(F)cc3)cc2s1)c1ccccc1 | inconclusive: 35.5 µM [inhibitor, single point] |
| Nc1cc2nsnc2cc1Br | inconclusive: 17.8 µM [inhibitor, single point] |
| CCC(=O)Nc1ccccc1Sc1ncnc2scc(-c3ccccc3)c12 | inconclusive: 0.891 µM [inhibitor, full curve, poor fit] |
| Cc1ccc(NC(=O)c2ccc(-c3nn(C)c(=O)c4ccccc34)cc2)c(C)c1 | inactive |
| COc1ccc(C(=O)Nc2cccnc2)cc1OC | inactive |
| CCOC(=O)C1(CCOc2ccccc2)CCN(Cc2cccn2-c2ncccn2)CC1 | active: 8.91 µM |
| CCOc1ccccc1NC(=O)c1ccc2oc(=O)c(S(=O)(=O)c3ccc(F)cc3)cc2c1 | inconclusive: 10 µM [activator, partial curve] |
| CC(=O)Nc1ccc(-c2ccc3nnc(C)n3n2)cc1 | inconclusive: 11.2 µM [activator, partial curve, poor fit] |

| Structure (SMILES) | Potency |
| --- | --- |
| COc1ccccc1/C=C/C=N/n1c(-c2ccc(F)cc2)n[nH]c1=S | inconclusive: 10 µM [inhibitor, partial curve, poor fit] |
| CCC(C)Nc1cc(C)c(C#N)c2nc3ccccc3n12 (centres undefined) | inconclusive: 2.51 µM [inhibitor, partial curve, poor fit] |
| C/C(=N\NC(=O)c1cc(-c2ccccc2C)nc2ccccc12)c1cccnc1 | inactive |
| CCOc1ccccc1NC(=O)CCCN1C(=S)NC(C)(C)CC1C (centres undefined) | inconclusive: 0.282 µM [inhibitor, full curve, poor fit] |
| CCOc1ccc(N(C(=O)c2snc(C(N)=O)c2N)C(C(=O)NCC2CCCO2)c2c[nH]c3ccccc23)cc1 (centres undefined) | inconclusive: 1.58 µM [inhibitor, full curve, poor fit] |
| CCn1ncc(CN2CCCC(C(=O)Nc3cccc(-c4cc5ccccc5[nH]4)c3)C2)c1C (centres undefined) | inconclusive: 15.8 µM [inhibitor, partial curve, poor fit] |
| Nc1c(O)ccc2c1C(=O)c1ccccc1C2=O | inconclusive: 8.91 µM [activator, partial curve, poor fit] |
| COc1ccccc1C1C(C(N)=O)=C(C)Nc2nc(SCc3ccccc3F)nn21 (centres undefined) | inconclusive: 2.24 µM [activator, full curve] |
| CCOc1c(Br)cc(C2NS(=O)(=O)N=C3CCCCCN32)cc1OC (centres undefined) | inconclusive: 3.16 µM [activator, single point] |
| Cc1cc(C(=O)COC(=O)c2ccc(O)cc2)c(C)n1Cc1ccco1 | inconclusive: 3.26 µM [activator, partial curve, poor fit] |
| COC(=O)c1c(C)nn(-c2ccccc2)c1N | inconclusive: 8.2 µM [activator, partial curve] |
| Nc1ccc(-c2nnn(Cc3ccccc3F)n2)cc1 | inactive |
| CCOc1ccc(N2CC(C(=O)Nc3ccc4c(c3)OCO4)CC2=O)cc1 (centres undefined) | inconclusive: 4.47 µM [inhibitor, single point] |
| CCCc1[nH]n(-c2nc3ccccc3s2)c(=O)c1C=NCC1CCCO1 (centres undefined) | inactive |
| O=C(CN1Cc2ccccc2C1=O)Nc1ccc2c(c1)OCCO2 | inconclusive: 0.631 µM [activator, full curve, poor fit] |
| CCN(CC)CCN(Cc1cc2ccc(C)c(C)c2[nH]c1=O)C(=S)NCc1ccco1 | inconclusive: 2.82 µM [inhibitor, partial curve, poor fit] |
| CCc1ccc(NC(=O)CN2C(=O)C(=O)c3ccccc32)cc1 | inconclusive: 6.31 µM [inhibitor, single point] |
| COc1ccc(S(=O)(=O)N2CC3CCCN3c3ccc(C(F)(F)F)cc32)cc1 (centres undefined) | inconclusive: 11.6 µM [inhibitor, partial curve, poor fit] |
| O=C(CSc1nnc(C2CC2)n1Cc1ccccc1)c1ccc(S(=O)(=O)N2CCOCC2)cc1 | inconclusive: 5.8 µM [activator, full curve, poor fit] |
| CC(=O)c1ccc(S(=O)(=O)N2CCC(Oc3ccc(-n4cnnn4)cc3)CC2)cc1 | inconclusive: 5.62 µM [inhibitor, single point] |

Reference: PubChem BioAssay AID540276 (National Center for Advancing Translational Sciences (NCATS), 2011)
